Results deposited as PubChem BioAssay AID1159578 (Peter MacCallum Cancer Centre, 2015).
Here is a random part of about 18,000 deposited reagents. In the full data, about 1,030 (5.7%) are marked active. 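Inactive calls also include pools with fewer than 3300 nuclei, whose migration was not assessed.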 Raw values are not corrected between plates. Further read-outs or replicates are left out here.

Assay: 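siRNA pools altering how lymphatic endothelial cells close a scratch wound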 (primary screen)
Cell system: human lymphatic endothelial cells
Reagent: siRNA pool against human genes, 40 nM
Timing: 48 h after transfection
Measurement: 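Cells stained with dye and imaged after a scratch; covered wound area and nuclei counted, duplicates averaged, migration set against mock wells and turned into a robust z-score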
Scale: migration robust z-score: higher = faster migration into the scratch; nuclei per well: higher = more cells in the well
Active means: 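Pools averaging fewer than 3300 nuclei are never called; remaining pools count as changed when migration robust z lies outside -2 to 2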
Meaning of the calls: active = migration changed; inactive = no migration change, or too few cells

gene	PubChem SID	migration robust z-score	migration class with cell-count check	nuclei per well, duplicate mean	activity call
NDUFA13 (NADH:ubiquinone oxidoreductase subunit A13)	SID255357456	-1.25	migration z between -2 and 2; enough cells	3812	inactive
ADAMTS19 (ADAM metallopeptidase with thrombospondin type 1 motif 19)	SID255363926	-2.02	migration z below -2; enough cells	5106	active
OR6S1 (olfactory receptor family 6 subfamily S member 1)	SID255365127	2.23	migration z above 2; enough cells	6472	active
NFATC1 (nuclear factor of activated T cells 1)	SID255351213	0.17	migration z between -2 and 2; enough cells	6804	inactive
ZNF671 (zinc finger protein 671)	SID255360547	-0.44	migration z between -2 and 2; enough cells	5766	inactive
ARMC1 (armadillo repeat containing 1)	SID255358455	-0.2	migration z between -2 and 2; enough cells	6415	inactive
KRCC1 (lysine rich coiled-coil 1)	SID255357646	-0.44	migration z between -2 and 2; enough cells	6874	inactive
MSS51 (MSS51 mitochondrial translational activator)	SID255362447	-1.06	migration z between -2 and 2; enough cells	5564	inactive
FNDC4 (fibronectin type III domain containing 4)	SID255360019	-0.9	migration z between -2 and 2; enough cells	5323	inactive
GJD4 (gap junction protein delta 4)	SID255364195	0.05	migration z between -2 and 2; enough cells	6092	inactive
CCR4 (C-C motif chemokine receptor 4)	SID255348977	-0.68	migration z between -2 and 2; enough cells	6614	inactive
KCNJ14 (potassium inwardly rectifying channel subfamily J member 14)	SID255350618	-0.24	migration z between -2 and 2; enough cells	6718	inactive
RAPGEF1 (Rap guanine nucleotide exchange factor 1)	SID255350028	1.45	migration z between -2 and 2; enough cells	6500	inactive
NT5E (5'-nucleotidase ecto)	SID255351308	-0.83	migration z between -2 and 2; enough cells	5310	inactive
SOST (sclerostin)	SID255357394	-0.08	migration z between -2 and 2; enough cells	4536	inactive
NUDT15 (nudix hydrolase 15)	SID255358554	0.11	migration z between -2 and 2; enough cells	4473	inactive
C8orf58 (chromosome 8 open reading frame 58)	SID255366032	-0.14	migration z between -2 and 2; enough cells	5969	inactive
NES (nestin)	SID255355333	-0.69	migration z between -2 and 2; enough cells	5165	inactive
RNF169 (ring finger protein 169)	SID255364449	1.25	migration z between -2 and 2; enough cells	6484	inactive
CXCL1 (C-X-C motif chemokine ligand 1)	SID255350057	-0.89	migration z between -2 and 2; enough cells	4310	inactive
FZD2 (frizzled class receptor 2)	SID255349777	-0.1	migration z between -2 and 2; enough cells	5202	inactive
C3orf18 (chromosome 3 open reading frame 18)	SID255357526	0.29	migration z between -2 and 2; enough cells	5800	inactive
ASAP1 (ArfGAP with SH3 domain, ankyrin repeat and PH domain 1)	SID255357360	-0.2	migration z between -2 and 2; enough cells	5866	inactive
ATP6AP1L (ATPase H+ transporting accessory protein 1 like (pseudogene))	SID255361994	-0.01	migration z between -2 and 2; enough cells	6298	inactive
CRLF1 (cytokine receptor like factor 1)	SID255354140	-0.54	migration z between -2 and 2; enough cells	5866	inactive
PCDHA13 (protocadherin alpha 13)	SID255359022	0.06	migration z between -2 and 2; enough cells	5984	inactive
DHX9 (DExH-box helicase 9)	SID255349274	0.96	migration z between -2 and 2; enough cells	4858	inactive
GDF5 (growth differentiation factor 5)	SID255353418	-0.22	migration z between -2 and 2; enough cells	5897	inactive
MAK (male germ cell associated kinase)	SID255350861	-1.5	migration z between -2 and 2; enough cells	3977	inactive
PRR4 (proline rich 4)	SID255355725	-0.24	migration z between -2 and 2; enough cells	5127	inactive
CIZ1 (CDKN1A interacting zinc finger protein 1)	SID255356462	-0.99	migration z between -2 and 2; enough cells	3794	inactive
HEATR9 (HEAT repeat containing 9)	SID255364543	0.31	migration z between -2 and 2; enough cells	5758	inactive
TFPI (tissue factor pathway inhibitor)	SID255352834	0.86	migration z between -2 and 2; enough cells	6696	inactive
CD5 (CD5 molecule)	SID255348756	0.99	migration z between -2 and 2; enough cells	6362	inactive
CEP83 (centrosomal protein 83)	SID255357507	-0.54	migration z between -2 and 2; enough cells	6377	inactive
CEACAM8 (CEA cell adhesion molecule 8)	SID255348888	0.86	migration z between -2 and 2; enough cells	4915	inactive
SLC39A4	SID255358735	-0.31	migration z between -2 and 2; enough cells	6106	inactive
SPANXD (SPANX family member D)	SID255359953	1.85	migration z between -2 and 2; enough cells	6080	inactive
SPANXD (SPANX family member D)	SID255363937	-1	migration z between -2 and 2; enough cells	4361	inactive
FBXL9P (F-box and leucine rich repeat protein 9, pseudogene)	SID255356723	-0.13	migration z between -2 and 2; enough cells	6002	inactive
RHOA (ras homolog family member A)	SID255348385	-0.52	migration z between -2 and 2; enough cells	5132	inactive
NEFL (neurofilament light chain)	SID255351200	0.82	migration z between -2 and 2; enough cells	5723	inactive
PISD (phosphatidylserine decarboxylase)	SID255356420	-1.36	migration z between -2 and 2; enough cells	4210	inactive
CLEC14A (C-type lectin domain containing 14A)	SID255363720	-0.48	migration z between -2 and 2; enough cells	6314	inactive
RIMBP2 (RIMS binding protein 2)	SID255356282	0.72	migration z between -2 and 2; enough cells	5806	inactive
SDR39U1 (short chain dehydrogenase/reductase family 39U member 1)	SID255359189	0.88	migration z between -2 and 2; enough cells	7344	inactive
YPEL5 (yippee like 5)	SID255357830	-0.54	migration z between -2 and 2; enough cells	5530	inactive
PASK (PAS domain containing serine/threonine kinase)	SID255356047	1.64	migration z between -2 and 2; enough cells	4532	inactive
ZNF398 (zinc finger protein 398)	SID255359455	-0.44	migration z between -2 and 2; enough cells	4393	inactive
PDK1 (pyruvate dehydrogenase kinase 1)	SID255351489	1.42	migration z between -2 and 2; enough cells	4736	inactive
GAL3ST1 (galactose-3-O-sulfotransferase 1)	SID255354335	-0.37	migration z between -2 and 2; enough cells	7224	inactive
XAGE3 (X antigen family member 3)	SID255363909	-4.31	under 3300 nuclei; migration not judged	507	inactive
IL12A (interleukin 12A)	SID255350473	-0.78	migration z between -2 and 2; enough cells	5880	inactive
CELF5 (CUGBP Elav-like family member 5)	SID255359741	-1.52	migration z between -2 and 2; enough cells	5068	inactive
DDX19A (DEAD-box helicase 19A)	SID255358586	-0.44	migration z between -2 and 2; enough cells	6389	inactive
NAP1L3 (nucleosome assembly protein 1 like 3)	SID255351141	0.72	migration z between -2 and 2; enough cells	5860	inactive
AGGF1 (angiogenic factor with G-patch and FHA domains 1)	SID255358416	1.84	migration z between -2 and 2; enough cells	7262	inactive

Records above marked active (2):
gene	PubChem SID	migration robust z-score	migration class with cell-count check	nuclei per well, duplicate mean	activity call
ADAMTS19 (ADAM metallopeptidase with thrombospondin type 1 motif 19)	SID255363926	-2.02	migration z below -2; enough cells	5106	active
OR6S1 (olfactory receptor family 6 subfamily S member 1)	SID255365127	2.23	migration z above 2; enough cells	6472	active
